# Results published in PubChem BioAssay AID624405 (Broad Institute, 2012).
# Screen size: about 1,900 compounds; about 250 (13%) were called active. Not shown: some 4% with an inconclusive outcome.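 How the source made its calls: active means fitted curve reaches 40% rescue activity at or below the top valid dose, in every test run; inconclusive means test runs disagree, some active and some inactive; inactive means every run misses the threshold or moves the wrong way.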 The list shows a part of the results, in another mix than the full data. Measured potencies and affinities stand elsewhere.
# Assay: rescue of simvastatin-induced ATP loss – cell-based, C2C12 myotubes, ATP luminescence, cherry pick, dose response (AID 624405);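 further: myotubes are challenged with simvastatin at 10 µM to lower ATP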
# Settings: 48 h, scaled: DMSO wells 0, geranylgeraniol wells 100; at 19.5 µM (top of the series) unless noted
row,SMILES,rescue activity (ATP increase)
1,CC(C)(C)n1nnnc1C(c1cccs1)N(Cc1ccccc1)Cc1cccnc1 (stereo not given),inactive: -10.9%
2,NC(=O)COC(=O)C(Cc1ccccc1)NS(=O)(=O)c1ccccc1F (stereo not given),inactive: -32.6%
3,COc1ccc(/C=N/NS(=O)(=O)c2ccccc2)cc1OC(=O)c1ccc(C)cc1,inactive: -7.16%
4,C[C@H]1CN([C@@H](C)CO)C(=O)Cc2cc(NC(=O)CCCCCC(=O)Nc3ccccc3N)ccc2O[C@@H]1CN(C)Cc1ccc(Oc2ccccc2)cc1,inactive: 37.8% [at 21 µM]
5,Cc1ccc(S(=O)(=O)Nc2ccc3c(c2)CC(=O)N([C@H](C)CO)C[C@H](C)[C@H](CN(C)S(=O)(=O)c2ccc(C)cc2)O3)cc1,inactive: 19.9%
6,CC(=O)N1C=CN(C(C)=O)C(c2cn(C)c3ccccc23)C1c1cn(C)c2ccccc12 (stereo not given),inactive: 25.1%
7,CCOc1ccc(-c2nc(CSCC(=O)NCc3ccco3)c(C)o2)cc1,inactive: 0.229%
8,COc1ccc(C#Cc2cnc3c(c2)C(=O)N([C@@H](C)CO)C[C@@H](C)[C@@H](CN(C)C(=O)Nc2cccc(OC)c2)O3)cc1,inactive: 23.6%
9,C[C@H]1CN([C@@H](C)CO)C(=O)Cc2cc(NC(=O)CCCCCC(=O)Nc3ccccc3N)ccc2O[C@@H]1CN(C)Cc1ccc(Cl)c(Cl)c1,inactive: 37.1% [at 18 µM]
10,COc1ccc(C2CC(c3c(O)cc(C)oc3=O)=NCCS2)c(OC)c1 (stereo not given),inactive: -139%
11,COCCNC(=O)CSc1nc2ccccc2c2nc(C)nn12,inactive: -16.7%
12,COc1ccc(S(=O)(=O)N2CCN(Cc3cccc(Cl)c3)CC2)cc1,inactive: 21.4%
13,C[C@@H]1CN([C@H](C)CO)C(=O)Cc2cc(NS(=O)(=O)c3ccc(F)cc3)ccc2O[C@H]1CN(C)Cc1ccc2c(c1)OCO2,inactive: 4.84% [at 10 µM]
14,C[C@@H]1CN([C@H](C)CO)C(=O)c2cccc(NC(=O)Nc3ccccc3)c2O[C@@H]1CN(C)S(=O)(=O)c1ccccc1,inactive: 26.7%
15,Cc1c(C(=O)N2CCc3ccccc32)oc2c1C(=O)CC(C)(C)C2,inactive: -12.6%
16,CCc1cccc(NC(=O)c2ccc(CNc3c(N4CCCC4)c(=O)c3=O)cc2)c1,inactive: 17.3%
17,COc1ccc(C#Cc2cnc3c(c2)C(=O)N([C@@H](C)CO)C[C@H](C)[C@@H](CN(C)C(=O)Nc2cccc(OC)c2)O3)cc1,inactive: 20.3%
18,CN(C)c1ccc(C2C3C(=O)N(c4ccc(C(=O)O)cc4)C(=O)C3ON2c2ccccc2)cc1 (stereo not given),inactive: -24.5%
19,C[C@H](CO)N1C[C@H](C)[C@@H](CN(C)Cc2ccc(Cl)c(Cl)c2)Oc2ccc(NC(=O)Cn3cnnn3)cc2CC1=O,inactive: 23.7%
20,O=C1NC(=NCc2ccccc2)NC1(c1ccccc1)c1ccccc1,inactive: -1.64%
21,C[C@H]1CN([C@@H](C)CO)C(=O)Cc2cc(NC(=O)Nc3ccc(C(F)(F)F)cc3)ccc2O[C@H]1CN(C)C(=O)Nc1ccc(F)cc1,inactive: -7.06%
22,O=C(CSCCO)N1CCc2ccccc21,inactive: -18.5%
23,C[C@H]1CN([C@@H](C)CO)C(=O)c2cccc(NC(=O)Nc3cccc4ccccc34)c2O[C@H]1CN(C)Cc1ccc(C(F)(F)F)cc1,inactive: 34.5%
24,O=C(Nc1ccc(Br)cc1)C1CCCN1S(=O)(=O)c1cccs1 (stereo not given),inactive: 22.4%
25,C[C@@H]1CCCCO[C@H](CN(C)C(=O)Nc2ccc3c(c2)OCO3)[C@H](C)CN([C@@H](C)CO)C(=O)c2cc(NS(=O)(=O)c3ccc(F)cc3)ccc2O1,inactive: 30.1%

# Grouped by structure, those above with two or more sulfur atoms (2)
row,SMILES,rescue activity (ATP increase)
5,Cc1ccc(S(=O)(=O)Nc2ccc3c(c2)CC(=O)N([C@H](C)CO)C[C@H](C)[C@H](CN(C)S(=O)(=O)c2ccc(C)cc2)O3)cc1,inactive: 19.9%
24,O=C(Nc1ccc(Br)cc1)C1CCCN1S(=O)(=O)c1cccs1 (stereo not given),inactive: 22.4%

# (cont.)

row,SMILES,rescue activity (ATP increase)
1,C=CCCCCCCCCc1nc(=S)[nH][nH]1,inactive: 37.8%
2,O=c1[nH]nc(Cc2ccc(Cl)cc2Cl)c2ccccc12,inactive: 27.6%
3,Cc1ccc(-n2ncc3c(=O)[nH]c(SCC(=O)N4CCOCC4)nc32)cc1,inactive: -8.65%
4,O=C1C=C(c2cccc(Cl)c2)C[C@@H](c2ccc3c(c2)OCO3)C1,inactive: 23.2%
5,CCCCOc1nc2ccccc2nc1C(C#N)C(=O)NC1CCCCC1 (stereo not given),inactive: -30.1%
6,COc1cccc(S(=O)(=O)N(C)C[C@H]2OCc3ccccc3-c3c(n(C)c4ccccc34)C(=O)N([C@H](C)CO)C[C@H]2C)c1,inactive: -1.38%
7,Cc1noc(C)c1NC(=O)Nc1ccc2c(c1)CC(=O)N([C@H](C)CO)C[C@H](C)[C@@H](CN(C)Cc1ccc(C(F)(F)F)cc1)O2,inactive: 4.75%
8,COc1cc(S(=O)(=O)Nc2ncccc2C)c(OC)cc1Cl,inactive: 7.54%
9,O=C(CSc1nc2ccccc2[nH]1)Nc1ccc2c(c1)OCCO2,inactive: -4.52%
10,COc1ccc(NC(=O)Nc2ccc3c(c2)C(=O)N([C@@H](C)CO)C[C@@H](C)[C@H](CN(C)C(=O)C2CCCCC2)OCCCC[C@H](C)O3)cc1,inactive: -1.73%
11,C=CCn1c(COc2cccc3cccnc23)nnc1SCC(=O)O,inactive: 9.15%
12,O=C(Cc1cn2ccsc2n1)Nc1ccccc1Oc1ccccc1,inactive: 53.2% [at 10 µM]
13,COc1ccc(NC(=O)Nc2ccc3c(c2)C(=O)N([C@@H](C)CO)C[C@H](C)[C@@H](CN(C)Cc2ccc(C(F)(F)F)cc2)OCCCC[C@@H](C)O3)cc1,inactive: -51.8%
14,CC(=O)c1cc(C#N)c(Oc2ccccc2)nc1C,inactive: 13.1%
15,COc1ccc(OC)c(-c2cc(C(=O)NCCCn3ccnc3)no2)c1,inactive: 13.1%
16,COc1ccc(CN(C)C[C@@H]2Oc3ccc(NS(=O)(=O)c4ccc(Cl)cc4)cc3CC(=O)N([C@H](C)CO)C[C@H]2C)cc1,inactive: 34.8%
17,Cc1noc(C)c1S(=O)(=O)Nc1ccc2c(c1)CC(=O)N([C@@H](C)CO)C[C@@H](C)[C@@H](CN(C)Cc1ccc(Cl)c(Cl)c1)O2,inactive: 3.78% [at 21 µM]
18,CCCN1C(=O)C(O)(C/C(C)=N/O)c2ccccc21 (stereo not given),inactive: -3.34%
19,COCCn1c(-c2ccccc2F)n[nH]c1=S,inactive: 24%
20,COc1cc(C)c(C(C)C)cc1S(=O)(=O)NCCCn1ccnc1,inactive: -23%
21,C[C@@H]1CN([C@@H](C)CO)C(=O)c2cc(C#CC3CCCCC3)cnc2O[C@H]1CN(C)C(=O)C1CCCCC1,inactive: 7.55%
22,CS(=O)(=O)N(CC(=O)NCc1ccccc1)C1CCCCC1,inactive: 0.866%
23,COCc1c(C(=O)OC)nnn1-c1ccccc1,inactive: 8.34%
24,Cc1c(Br)cc(C(=O)N2CCCCCC2)c(C)c1C,inactive: -47.9%
25,C=C(C)Cn1c(CCCNC(=O)C(C)(C)C)nc2ccccc21,inactive: 0.573%

row,SMILES,rescue activity (ATP increase)
1,COC(=O)c1cc(S(=O)(=O)NCCc2ccccc2)c[nH]1,inactive: -7.87%
2,CCC(NS(=O)(=O)c1ccc(C)cc1)C(=O)Nc1ccc(NC(C)=O)cc1 (stereo not given),inactive: -17.2%
3,Cc1cccc(Nc2nc(CC(=O)O)cs2)c1,inactive: -21.3%
4,COc1ccccc1NC(=O)NC1(C(=O)N2CCCCCC2)CCCCC1,inactive: 14.8%
5,CCS(=O)(=O)N1CCCC(C(=O)NCCc2ccc(OC)c(OC)c2)C1 (stereo not given),inactive: -21.5%
6,O=C1CC(c2ccncc2)c2cc3c(cc2N1)OCCO3 (stereo not given),inactive: 28.1%
7,CC(C)NC(=O)CN1C(=O)NC(CCc2ccccc2)C1=O (stereo not given),inactive: -27.9%
8,CCOc1ccccc1CN1CCNC(=O)C1CC(=O)N(C)CCc1ccccn1 (stereo not given),inactive: -6.58%
9,C[C@H]1CN([C@@H](C)CO)C(=O)c2cc(C#CC3CCCCC3)cnc2O[C@@H]1CN(C)C(=O)C1CCCCC1,inactive: 8.63%
10,C[C@@H]1CN([C@H](C)CO)C(=O)Cc2cc(NC(=O)Cc3cn(C)c4ccccc34)ccc2O[C@H]1CN(C)Cc1ccc(-c2ccccc2)cc1,inactive: 9.45%
11,C[C@H](CO)N1C[C@H](C)[C@@H](CN(C)Cc2ccc(Cl)c(Cl)c2)Oc2c(cccc2N(C)C)C1=O,inactive: 19.5% [at 21 µM]
12,COc1ccc2[nH]c(=O)c(CNc3ccc(C)c(C)c3)cc2c1,inactive: 35.4%
13,COCCNC(=O)[C@@]1(Cc2ccccc2)C=C[C@@H](C)N1C(C)=O,inactive: -15.8%
14,C[C@@H]1CN([C@H](C)CO)C(=O)Cc2cc(NC(=O)Nc3cccc4ccccc34)ccc2O[C@H]1CN(C)CC1CCCCC1,inactive: 15.5%
15,O=C(O)CCC(=O)Nc1nnc(C(F)(F)F)s1,inactive: 1.86%
16,COc1ccc(S(=O)(=O)Nc2ccc3c(c2)C(=O)N([C@@H](C)CO)C[C@@H](C)[C@H](CN(C)S(=O)(=O)c2ccc(F)cc2)OCCCC[C@@H](C)O3)cc1,inactive: -17.1%
17,COc1ccc(S(=O)(=O)NCc2csc(C)n2)cc1,inactive: -5.58%
18,C[C@@H]1CN([C@H](C)CO)C(=O)c2cc(NS(=O)(=O)c3cccs3)ccc2O[C@@H](C)CCCCO[C@@H]1CN(C)Cc1ccc(C(F)(F)F)cc1,inactive: -13.6%
19,Cc1cc(=O)[nH]c(SCC2(O)C3CC4CC(C3)CC2C4)n1 (stereo not given),inactive: -5.83%
20,Cc1ccc(NC(=O)c2cc(-c3cccs3)on2)cc1C,inactive: -12.4%
21,NC(=O)C1CCN(Cc2nc3cc(Cl)ccc3c(=O)[nH]2)CC1,inactive: 9.91%
22,C=CCOC(=O)c1ccc(-n2cncn2)nc1,inactive: -9.68%
23,O=C(NCc1ccco1)c1ccccc1NS(=O)(=O)c1ccc2c(c1)OCCO2,inactive: 26%
24,O=C(O)CSc1nc(-c2ccccc2)nc2c1oc1ccccc12,inactive: -11.1%
25,COc1ccc(CN2[C@H](CO)[C@H]3c4ccccc4N(C(=O)c4ccccc4)C[C@H]32)cc1,inactive: 21.3%

# 3 records drawn at random from those above:
row,SMILES,rescue activity (ATP increase)
13,COCCNC(=O)[C@@]1(Cc2ccccc2)C=C[C@@H](C)N1C(C)=O,inactive: -15.8%
7,CCOc1ccc(-c2nc(CSCC(=O)NCc3ccco3)c(C)o2)cc1,inactive: 0.229%
16,CCc1cccc(NC(=O)c2ccc(CNc3c(N4CCCC4)c(=O)c3=O)cc2)c1,inactive: 17.3%
